According to article PMC11380953, “Multivalent, calcium-independent binding of surfactant protein A and D to sulfated glycosaminoglycans of the alveolar epithelial glycocalyx” (American Journal of Physiology - Lung Cellular and …, 2024):
No constants are given. Whether binding was seen depends on the method and setting. Some entries that bind do so weakly or less than the wild type.

Amino acid sequences for entries named in this document (tags omitted). Residues count along the entry.
UniProt Q8IWL1, residues 21-248: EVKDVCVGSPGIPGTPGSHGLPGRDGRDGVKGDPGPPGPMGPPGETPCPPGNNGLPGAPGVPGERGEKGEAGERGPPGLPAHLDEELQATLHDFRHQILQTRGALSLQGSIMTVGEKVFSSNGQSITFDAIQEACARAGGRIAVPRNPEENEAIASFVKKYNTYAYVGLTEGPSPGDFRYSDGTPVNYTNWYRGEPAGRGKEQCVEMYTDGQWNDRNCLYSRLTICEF

Legend:
Assay in all cases: interferometric light scattering microscopy (iSCAM); OneMP (Refeyn), 525 nm laser; protein 15–400 nM in sodium and magnesium-free DPBS pH 7.4; 19–20°C; contrasts converted into masses with NativeMark; self-association, oligomeric species in solution; both purified
[1] = target: Human recombinant SP-A2 (surfactant protein A2) (human) (UniProt Q8IWL1)
[2] = target: T1, Human recombinant SP-D (surfactant protein D) (human), P35247; settings: remark: other sources report otherwise
T1 chain: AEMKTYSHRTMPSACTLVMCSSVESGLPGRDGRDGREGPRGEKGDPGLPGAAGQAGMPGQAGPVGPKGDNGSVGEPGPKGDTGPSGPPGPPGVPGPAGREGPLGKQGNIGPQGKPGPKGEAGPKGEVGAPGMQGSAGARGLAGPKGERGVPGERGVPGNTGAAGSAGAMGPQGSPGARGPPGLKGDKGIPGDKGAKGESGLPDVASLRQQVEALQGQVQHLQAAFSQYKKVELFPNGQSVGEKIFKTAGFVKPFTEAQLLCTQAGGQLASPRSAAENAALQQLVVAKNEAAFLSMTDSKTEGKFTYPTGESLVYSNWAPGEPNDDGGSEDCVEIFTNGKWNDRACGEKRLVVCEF

[3] = target: T2, Human SP-D isolated from bronchoalveolar lavage fluid of patients with pulmonary alveolar proteinosis (human), P35247; settings: remark: other sources report otherwise
T2 chain: T1 chain

Human recombinant SP-A2 (surfactant protein A2) (from UniProt Q8IWL1 21-248)
binding [1]: binds

B1: Human recombinant SP-D (surfactant protein D), P35247 21-375 (protein)
chain: T1 chain
binding [2]: binds

B2: Human SP-D isolated from bronchoalveolar lavage fluid of patients with pulmonary alveolar proteinosis, P35247 21-375 (protein)
chain: T1 chain
binding [3]: binds
